Laboratory results taken from PubChem BioAssay AID330 (DTP/NCI, 2004).
The list is a part of this screen's results and no random one: it is rich in T/C values a quarter to a half above the control, in often repeated tests (any T/C) and in doses without a T/C. Further doses and runs are listed elsewhere. T/C is the treated group as % of the vehicle group. Some doses have a count of surviving animals in place of a T/C: the source files T/C as zero there, which appears to mark a toxic dose or a test without result, not a measured value. Some doses without a T/C left all or most animals alive at the check, yet need not have been tolerated: the source hardly ever lists a survival T/C far under the control, and the zero likely stands for such cases as well. Counts of survivors are from the toxicity check (mostly the fifth day) where no day follows; animals may have died later. Schedules are NCI's codes, taken here to give the interval after Q, in days (D) or hours (H), and the number of doses after X. Some doses were run more than once; the values are given in rising order. Where survival is the endpoint, this PubChem deposit counts one and a half times the control or more as active, and values a quarter to a half above the control carry no call in these data; other NCI protocols may use other cut-offs. Some T/C values carry the count of animals alive at the toxicity check (mostly the fifth day); without a count, all were alive then.

Test system: P388 leukemia ip, CD2F1 mice, survival T/C
Assay: NCI In Vivo Anticancer Drug Screen. Data for tumor model P388 Leukemia (intraperitoneal) in CD2F1 (CDF1) mice
Conditions: T/C endpoint: median survival time, higher T/C = longer survival
[1] = dose: 100.0 mg/kg/injection, schedule: Q01DX009 (ip), vehicle: Klucel (hydroxypropylcellulose) (HPC)
[2] = dose: 200.0 mg/kg/injection, schedule: Q01DX009 (ip), vehicle: Klucel (hydroxypropylcellulose) (HPC)
[3] = dose: 12.5 mg/kg/injection, schedule: Q01DX009 (ip), vehicle: saline
[4] = dose: 25.0 mg/kg/injection, schedule: Q01DX009 (ip), vehicle: saline
[5] = dose: 100.0 mg/kg/injection, schedule: Q01DX009 (ip), vehicle: saline
[6] = dose: 200.0 mg/kg/injection, schedule: Q01DX009 (ip), vehicle: saline
[7] = dose: 200.0 mg/kg/injection, schedule: Q01DX009 (ip), vehicle: saline with Tween-80
[8] = dose: 100.0 mg/kg/injection, schedule: Q01DX005 (ip), vehicle: saline with Tween-80
[9] = dose: 200.0 mg/kg/injection, schedule: Q01DX005 (ip), vehicle: saline with Tween-80
[10] = dose: 25.0 mg/kg/injection, schedule: Q01DX009 (ip), vehicle: Klucel (hydroxypropylcellulose) (HPC)
[11] = dose: 50.0 mg/kg/injection, schedule: Q01DX009 (ip), vehicle: Klucel (hydroxypropylcellulose) (HPC)

CC(Cl)CN(CC(C)Cl)c1ccc2c(c1)Cc1ccccc1-2 (stereo unspecified)
T/C [1]: 131 % of control | T/C [2]: 129 and 146 % of control | T/C (dose: 400.0 mg/kg/injection, schedule: Q01DX009 (ip), vehicle: Klucel (hydroxypropylcellulose) (HPC)): 139 and 140 % of control [5 of 6 alive]

O=C1OC(CO)C(O)C2OC(=O)c3c(c(O)c(O)c(O)c3-c3c(O)c(O)c(O)c4c3C(=O)OC2C4O)-c2c1cc(O)c(O)c2O (stereo unspecified)
survivor count (dose: 6.25 mg/kg/injection, schedule: Q01DX009 (ip), vehicle: saline): 4 of 6 | survivor count [3]: 4 of 6 | survivor count [4]: 0 of 6 | survivor count (dose: 50.0 mg/kg/injection, schedule: Q01DX009 (ip), vehicle: saline): 0 of 6 | survivor count [5]: 0 of 6 | survivor count [6]: 0 of 6

COc1nc(NC2OC(CO)C(O)C2O)cc(=O)n1C (stereo unspecified)
survivor count (dose: 240.0 mg/kg/injection, schedule: Q01DX005 (ip), vehicle: saline with Tween-80): 5 of 6

C=C([Se]c1ccccc1)C(C)(C)C
survivor count [7]: 5 of 6

CC(C)c1nnc2cc3oc4ccccc4c3cc2c1N
survivor count [8]: 0 of 5 | survivor count [9]: 0 of 5

CC1=CC(Cc2ccccc2)N(C)C(C#N)C1 (stereo unspecified)
survivor count [8]: 2 of 5 | survivor count [9]: 0 of 5

Cc1ccc2c(c1)C=CC(C#N)N2C(=O)Oc1ccccc1 (stereo unspecified)
survivor count [3]: 6 of 6 | survivor count (dose: 50.0 mg/kg/injection, schedule: Q01DX009 (ip), vehicle: suspension in saline): 6 of 6 | survivor count (dose: 100.0 mg/kg/injection, schedule: Q01DX009 (ip), vehicle: suspension in saline): 6 of 6 | survivor count (dose: 200.0 mg/kg/injection, schedule: Q01DX009 (ip), vehicle: suspension in saline): 6 of 6

Cc1nc(=O)oc(NC(C)C)c1Cl
T/C [6]: 127 % of control

CC(C)NS(=O)(=O)OCC(O)(CC(Cl)(Cl)Cl)c1ccccc1 (stereo unspecified)
T/C [7]: 139 % of control

COc1cc(NC(=O)CCl)ccc(=O)c1
survivor count (dose: 50.0 mg/kg/injection, schedule: Q01DX009 (ip), vehicle: saline with Tween-80): 4 of 6

CC(=O)c1ccc2c(=O)n3c4ccccc4nc3c3cccc1c23
survivor count [7]: 6 of 6

COC(=O)c1cc(=O)n(-c2ccc(OC)cc2)c(SC)n1
survivor count (dose: 400.0 mg/kg/injection, schedule: Q04DX003 (ip), vehicle: saline with Tween-80): 4 of 6

CCCCN(CCCC)c1ccc(C(=NC(C)CCCN(CC)CC)c2ccc(N(C)C)cc2)cc1 (stereo unspecified)
survivor count (dose: 50.0 mg/kg/injection, schedule: Q01DX005 (ip), vehicle: saline with Tween-80): 1 of 5 | survivor count [8]: 0 of 5 | survivor count [9]: 0 of 5

CCCCCCCCOC(=O)c1ccc(O)cc1
survivor count [7]: 5 of 6

Cc1ccc(C2(c3ccc(C)cc3)CCCCCC2=O)cc1
survivor count (dose: 200.0 mg/kg/injection, schedule: Q01DX005 (ip), vehicle: Klucel (hydroxypropylcellulose) (HPC)): 6 of 6

CCN(CC)CCCC(C)Nc1c2ccc(C)cc2nc2ccc(OC)cc12 (stereo unspecified)
T/C (dose: 25.0 mg/kg/injection, schedule: Q01DX009 (ip), vehicle: saline with Tween-80): 131 % of control | survivor count (dose: 100.0 mg/kg/injection, schedule: Q01DX009 (ip), vehicle: saline with Tween-80): 1 of 6

CCC1(c2ccccc2)OCC(C2CCCCN2)O1 (stereo unspecified)
survivor count [2]: 0 of 6

Cc1nn(C)c(NC(=O)c2ccccc2O)c1SC#N
survivor count (dose: 50.0 mg/kg/injection, schedule: Q04DX002 (ip), vehicle: saline with Tween-80): 0 of 6 | survivor count (dose: 100.0 mg/kg/injection, schedule: Q04DX002 (ip), vehicle: saline with Tween-80): 0 of 6 | survivor count (dose: 200.0 mg/kg/injection, schedule: Q04DX002 (ip), vehicle: saline with Tween-80): 0 of 6

C1=CC2(C=CCC1)OCCO2
survivor count [8]: 0 of 6 | survivor count [9]: 0 of 5

COc1cccc2c1C(=O)c1c(O)c3c(c(O)c1C2=O)C[C@@](O)(C(=O)CO)C[C@@H]3OC1CC(NC=O)C(O)C(C)O1 (stereo partly specified)
T/C (dose: 1.56 mg/kg/injection, schedule: Q01DX009 (ip), vehicle: Klucel (hydroxypropylcellulose) (HPC)): 130 % of control [4 of 6 alive]

Cc1c(N=Nc2ccc([N+](=O)[O-])cc2)nc2scc(-c3ccccc3)n12
T/C (dose: 50.0 mg/kg/injection, schedule: Q04DX002 (ip), vehicle: Klucel (hydroxypropylcellulose) (HPC)): 133 % of control | T/C (dose: 100.0 mg/kg/injection, schedule: Q04DX002 (ip), vehicle: Klucel (hydroxypropylcellulose) (HPC)): 136 % of control [4 of 6 alive] | survivor count (dose: 200.0 mg/kg/injection, schedule: Q04DX002 (ip), vehicle: Klucel (hydroxypropylcellulose) (HPC)): 6 of 6 | survivor count (dose: 400.0 mg/kg/injection, schedule: Q04DX002 (ip), vehicle: Klucel (hydroxypropylcellulose) (HPC)): 6 of 6

CC12CCC(=O)C=C1CCC1C2CCC2(C)C(OC(=O)C34C=CC(=O)C3C3C=CC4CC3)CCC12 (stereo unspecified)
survivor count (dose: 100.0 mg/kg/injection, schedule: Q01DX005 (ip), vehicle: distilled water + Tween-80): 6 of 6 | survivor count (dose: 200.0 mg/kg/injection, schedule: Q01DX005 (ip), vehicle: distilled water + Tween-80): 6 of 6

CN(C)CCC(=O)/C=C\c1ccccc1
survivor count [5]: 2 of 6 | survivor count [6]: 0 of 6

Brc1cc(Br)c2ccccc2c1OCC1CO1 (stereo unspecified)
survivor count [10]: 5 of 6 | survivor count [1]: 6 of 6

O=C(NC(Cc1cccc(F)c1)C(=O)O)c1ccccc1 (stereo unspecified)
survivor count (dose: 25.0 mg/kg/injection, schedule: Q01DX009 (ip), vehicle: other): 1 of 6 and 5 of 6 | survivor count (dose: 50.0 mg/kg/injection, schedule: Q01DX009 (ip), vehicle: other): 1 of 6 | survivor count (dose: 100.0 mg/kg/injection, schedule: Q01DX009 (ip), vehicle: other): 0 of 6

CC(=O)OC1OC(CS[As](C2CCCCC2)C2CCCCC2)C(OC(C)=O)C(OC(C)=O)C1OC(C)=O (stereo unspecified)
survivor count [11]: 3 of 6 | survivor count [1]: 0 of 6 | survivor count [2]: 0 of 6

CS(=O)(=O)OCCN(CCOS(C)(=O)=O)c1ccc(C=Nc2ccc(-c3csc(Cc4ccccc4)n3)cc2)cc1
T/C (dose: 6.25 mg/kg/injection, schedule: Q01DX009 (ip), vehicle: suspension in saline): 140 % of control | T/C [4]: 141 % of control

CSc1cccc(N=C(N)N)c1
survivor count [6]: 2 of 6

Cc1ccc(C)c(NC(=O)Nc2nccs2)c1
survivor count [1]: 0 of 6

Cl/C(=N\Nc1ccccc1)c1ccccc1
survivor count [10]: 1 of 6 | survivor count [11]: 2 of 6

O=[N+]([O-])c1ccc(/C=N/Nc2nnc(-c3ccccc3)c(-c3ccccc3)n2)o1
survivor count [8]: 6 of 6
